From PMC9722908 come the findings set out here.

Sequences of proteins named here, by UniProt entry; tags and fusion partners are left off. A change or cut given only in a name is not applied to a line headed by its entry.
UniProt P06803: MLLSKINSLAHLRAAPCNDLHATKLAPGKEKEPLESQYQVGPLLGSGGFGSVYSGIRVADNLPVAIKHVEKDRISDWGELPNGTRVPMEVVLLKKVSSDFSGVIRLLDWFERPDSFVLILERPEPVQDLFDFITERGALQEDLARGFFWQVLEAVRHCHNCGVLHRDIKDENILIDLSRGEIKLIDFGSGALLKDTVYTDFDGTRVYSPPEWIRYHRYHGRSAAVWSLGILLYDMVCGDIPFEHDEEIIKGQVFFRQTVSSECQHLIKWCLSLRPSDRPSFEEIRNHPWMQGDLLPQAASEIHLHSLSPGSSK

No constants are given. Whether binding was seen depends on the method and setting. In cells and extracts the contact can be indirect. Binding can be weak; no strength is given.

The assay has as its target endogenous Pim1 of BMDMs (mouse (endogenous in BMDMs)) (UniProt P06803). The experiment in a line: co-IP; endogenous proteins; BMDMs stimulated with LPS (100 ng ml^-1) for 1 h, immunoprecipitation with an anti-Pim1 antibody, immunoblot.

B1: endogenous IRF3 of murine macrophages (protein, UniProt P70671 1-419)
chain: METPKPRILPWLVSQLDLGQLEGVAWLDESRTRFRIPWKHGLRQDAQMADFGIFQAWAEASGAYTPGKDKPDVSTWKRNFRSALNRKEVLRLAADNSKDPYDPHKVYEFVTPGARDFVHLGASPDTNGKSSLPHSQENLPKLFDGLILGPLKDEGSSDLAIVSDPSQQLPSPNVNNFLNPAPQENPLKQLLAEEQWEFEVTAFYRGRQVFQQTLFCPGGLRLVGSTADMTLPWQPVTLPDPEGFLTDKLVKEYVGQVLKGLGNGLALWQAGQCLWAQRLGHSHAFWALGEELLPDSGRGPDGEVHKDKDGAVFDLRPFVADLIAFMEGSGHSPRYTLWFCMGEMWPQDQPWVKRLVMVKVVPTCLKELLEMAREGGASSLKTVDLHISNSQPISLTSDQYKAYLQDLVEDMDFQATGNI
Turning to B1, the binding result is “binds”.

B2: endogenous TRIF of BMDMs (protein, UniProt Q80UF7 1-732)
chain: MDNPGPSLRGAFGILGALERDRLTHLKHKLGSLCSGSQESKLLHAMVLLALGQDTEARVSLESLKMNTVAQLVAHQWADMETTEGPEEPPDLSWTVARLYHLLAEENLCPASTRDMAYQVALRDFASQGDHQLGQLQNEAWDRCSSDIKGDPSGFQPLHSHQGSLQPPSASPAVTRSQPRPIDTPDWSWGHTLHSTNSTASLASHLEISQSPTLAFLSSHHGTHGPSKLCNTPLDTQEPQLVPEGCQEPEEISWPPSVETSVSLGLPHEISVPEVSPEEASPILPDALAAPDTSVHCPIECTELSTNSRSPLTSTTESVGKQWPITSQRSPQVPVGDDSLQNTTSSSPPAQPPSLQASPKLPPSPLSSASSPSSYPAPPTSTSPVLDHSETSDQKFYNFVVIHARADEQVALRIREKLETLGVPDGATFCEEFQVPGRGELHCLQDAIDHSGFTILLLTASFDCSLSLHQINHALMNSLTQSGRQDCVIPLLPLECSQAQLSPDTTRLLHSIVWLDEHSPIFARKVANTFKTQKLQAQRVRWKKAQEARTLKEQSIQLEAERQNVAAISAAYTAYVHSYRAWQAEMNKLGVAFGKNLSLGTPTPSWPGCPQPIPSHPQGGTPVFPYSPQPPSFPQPPCFPQPPSFPQPPSFPLPPVSSPQSQSFPSASSPAPQTPGPQPLIIHHAQMVQLGVNNHMWGHTGAQSSDDKTECSENPCMGPLTDQGEPLLETPE
In the case of B2, the binding entry is “binds”.
